Construct, isoform or probe ends are uncertain for at least one entry. At least one verdict was read from the data and is not stated in words by the source. Protein sequences can lack the tags named with them.
Target: T1, *III (core domain) (bacteriophage T4) (UniProt P03695)
T1 sequence (looked up): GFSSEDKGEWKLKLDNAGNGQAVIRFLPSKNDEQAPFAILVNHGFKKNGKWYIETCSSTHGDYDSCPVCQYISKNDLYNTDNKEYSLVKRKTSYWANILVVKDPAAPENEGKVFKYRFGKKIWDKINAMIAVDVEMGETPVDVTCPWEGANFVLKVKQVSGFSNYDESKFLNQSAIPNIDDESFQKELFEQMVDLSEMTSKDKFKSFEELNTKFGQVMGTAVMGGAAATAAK
Test: competition with a labelled probe
Details: inhibits EDC/NHS cross-linking of C-domain to core, ~50% at p(dT)7:core ratio 1; 5' phosphate; DNA stretching: 0.1 M Na+; recombinant protein; residues 22-253; single-stranded DNA

TTTTTTT [p(dT)7]
binding result: binds
